# Experimental data reported in the supplement of paper PMC10338343.
# ± gives the standard deviation. Only a part is listed here, and it is no random draw. Many entries were measured with a wide error.
# Test system: MILI (PIWIL2) piRISC loaded with Kctd7 piRNA (26 nt)
# Test: pre-steady-state target cleavage rate (min^-1); MIWI and MILI are mouse PIWI proteins and EfPiwi is from a freshwater sponge; tags in brackets are library labels; higher = faster piRNA-guided slicing of the target
# Conditions: guide: Kctd7 piRNA 5'p-UGUUAAUCUCUCAGAGAAGGUGACAG; auxiliary factor: 500 nM mouse GTSF1
# How it was run: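 The pre-steady-state cleavage rate was obtained by Cleave-'n-Seq with a burst-and-steady-state fit. A transcribed, DNA-blocked target RNA library (0.1 nM) was mixed with 1 nM active affinity-purified piRISC carrying one synthetic guide, with or without 500 nM GTSF1 partner protein, in HEPES–potassium acetate buffer at 33 °C for 0–8 or 0–960 min. Uncleaved targets were sequenced and normalised to depth and to weakly complementary targets, with three trials pooled and k3 capped at 0.0001 min^-1.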
row,Sequence,pre-steady-state target cleavage rate
1,UAGUCUGUCUGCUUCUCUGAGAGAUUUUGA,0.000439 ± 0.013
2,UAGUGACUCACCUUCUGUGAGUGAUUAACA,0.00145 ± 0.0072
3,UAGUGUGUGACCUUCUCUGAGUGAUUAACA,0.00169 ± 0.0075
4,UAGUGACAGUCCUUCUCUGAGAGAUAAUGA,0.000485 ± 0.011
5,UAGUGAGUCACCAAGUCUGAGAGAUUUUGA,0.000456 ± 0.022
6,UAGUGACAGUCCUUCUCUGAGUGUUUAACA,0.000165 ± 0.018
7,UAGUGACUCACCUUCUCACUCUCUAAUUGA [g14:g23:cont:t1A],0.000289 ± 0.027
8,UAGUCUGUCAGGUUCUCUGAGAGAUUUUGA,0.000851 ± 0.0054
9,UAGUGACUCACCUUCAGUGAGAGAUAUUGA,0.0012 ± 0.008
10,UAGUGAGUCACCUUCUCUGACUCAUUUUGA,0.000844 ± 0.011
11,UAGUGACUCUCCUUCUCUGAGAGAUAUUGA,0.00144 ± 0.0053
12,UAGUGACUGUGCUUCUCUGAGAGAUUUUGA,0.000437 ± 0.014
13,UAGUGACAGUGCUUCUCUCAGAGAUUAAGA,0.00117 ± 0.0065
14,UAGUGACAGUGGAACAUCUGAGAGAUUAACA,0.0011 ± 0.0034
15,UAGUGACAGUGGAAGUCUGACAGAUUAACA,0.000132 ± 0.021
16,UAGUGACAGUGCUUCUCUGAGAGUAUAACA,0.000271 ± 0.0092
17,UAGUGACACACCUUCUGACAGAGAUUUUGA,0.00102 ± 0.0099
18,UAGUGACAGUGCUUCUCUAGAGAUUAACA,0.000839 ± 0.0071
19,UAGUGACAGAGGUUCUCUGAGAGAUUAUGA,0.000798 ± 0.0064
20,UAGUGACACACCUUCUCAGAGUGAUUAACA,0.00281 ± 0.0059
21,UAGUGACAGUGGUUCUCUGCGAGAUUAACA,0.000986 ± 0.0062

# 2 entries from above in a different format.
row	Sequence	pre-steady-state target cleavage rate
19	UAGUGACAGAGGUUCUCUGAGAGAUUAUGA	0.000798 ± 0.0064
20	UAGUGACACACCUUCUCAGAGUGAUUAACA	0.00281 ± 0.0059

# Next part

row,Sequence,pre-steady-state target cleavage rate
1,UAGUGACAGUGGAAGACUGAGAGUAUUAACA,0.000179 ± 0.015
2,UAGUGACAGUGCUUCUCUGAGCGAUUAACA,0.000991 ± 0.0047
3,UAGUGACAGUGCUUCACUGAGUGAUUAACA,0.00348 ± 0.0037
4,UAGUGACAGUCCAUCUCUGAGAGAUUAUGA,0.000383 ± 0.017
5,UAGUGUGUCACCUUCUCUGAGAGUAAAACA,0.194 ± 0.057
6,UAGUGACAGACCAUCUCAGAGAGAUUAACA,0.00328 ± 0.0046
7,UAGUGACAGUCCUUCUCUGAGAGAUAUAGA,0.000348 ± 0.014
8,UAGUCUGUGACGUUCUCUGAGAGAUUAACA,0.147 ± 0.01
9,UAGUGACAGUGCUUCUCGUGAGAGAUUAACA,0.000602 ± 0.013
10,UAGUGACAGUGGAAGAGUGAGAAUUAACA,0.000179 ± 0.051
11,UAGUGACAGUGGAACUCUGAGAGUUAAACA,< 0.0001
12,UAGUCUGUCACCUUCUCUGACUCAUUAACA,0.00126 ± 0.0043
13,UAGUGACAGUGGAACUCUGAGAAGAUUAACA,0.00026 ± 0.032
14,UAGUGACAGUGGAAGAGUGAGAGAUCUAACA,0.000122 ± 0.058
15,UAGUGACAGUCCUUCUCUCAGUGAUUAACA,0.00226 ± 0.0031
16,UAGUGAGUCUCCUUCACUGAGAGAUUAACA,0.166 ± 0.016
17,UAGUGACAGACCUUCUCUGAGAGAAAAACA,0.00247 ± 0.0064
18,UAGUGACAGUCCUUCACUCAGAGAUUAACA,0.0024 ± 0.0053
19,UAGUGACAGACCUUCUCUGAGAGAUAUUGA,0.000859 ± 0.011
20,UAGUCUGUCACCUUCUCUGAGAGAUUAAAA,0.12 ± 0.031
21,UAGUGACAGACCUUCUGUGAGAGAUUUUGA,0.00229 ± 0.0065

# Some values from the list:
# UAGUGACAGUGGAAGACUGAGAGUAUUAACA | pre-steady-state target cleavage rate: 0.000179 ± 0.015
# UAGUGACAGUGCUUCACUGAGUGAUUAACA | pre-steady-state target cleavage rate: 0.00348 ± 0.0037

# The list goes on:

row,Sequence,pre-steady-state target cleavage rate
1,UAGUGACUCACCUUCUCUGAGUCUUUAACA,0.00062 ± 0.014
2,UAGUGACAGUGGAAGACUGAAAGAUUAACA,0.000113 ± 0.026
3,UAGUGACACACCUUCUCCUGAGAGAUUAACA,0.00434 ± 0.0049
4,UAGUGACAGUGGAACUCUGAGACAUAAACA,0.00122 ± 0.017
5,UAGUGACAGUGGAUCACUGAGAGAUUAACA,0.000355 ± 0.006
6,UAGUCUGUCACGUUCUCUGAGAGAUAUUGA,0.000974 ± 0.007
7,UAGUGACAGUCCUUCUCUGAGAGAUUUAGA,0.0011 ± 0.006
8,UAGUGACAGUCCUUCUCUGAGAGUUUUACA,0.00041 ± 0.015
9,UAGUGACAGUCCUUCUCUGGAGAGAUUAACA,0.000138 ± 0.019
10,UAGUGAGUCACCUUCUCUGAGAGAUUAACC [g2:g24:cont:t1C],0.192 ± 0.018
11,UAGUGACAGUGGAACUCUGAAAGAUUAACA,0.00117 ± 0.015
12,UAGUGACAGUCCUACUCUGAGACAUUAACA,0.000705 ± 0.0043
13,UAGUGACAGUGGAAGAGAGAGAGUUUAUCA,0.000169 ± 0.053
14,UAGUGACACACCUUGUCUGAGAGAUUUUGA,0.000586 ± 0.017
15,UAGUGAGUCACCUUCCUGAGAGAUUAACA,0.119 ± 0.038
16,UAGUGACAGUGGAAGUCUGAGAGAUUGAACA,0.00019 ± 0.014
17,UAGUGACAGUGGAAGACUGAGCGAUUAACA,0.000201 ± 0.031
18,UAGUCUGUCAACCUUCUCUGAGAGAUUAACA,0.0716 ± 0.011
19,UAGUGACUCACCUUCUCUGACUCAUUAUGA,0.000148 ± 0.03
20,UAGUGACUCACCAACUCUGAGAGAUUAUGA,0.002 ± 0.0054
21,UAGUGAGUCACCUUCUUCUGAGAGAUUAACA,0.0918 ± 0.028
